Measured values from US20070212690A1, “Folate Antagonists Having Improved Selectivity” (Serenex, Inc., priority 2003, published 2007).
At least one structure is not confirmed: it was looked up by name or label, or the drawing left a doubt.

Tested on: DHFR
Test: Elution of purine-binding proteins from ATP-Sepharose column with the compound
Design: species or system porcine liver, porcine lidney, HeLa cells, whole mice
Conditions: lysate on ATP-Sepharose; methotrexate 10 nM to 500 μM; SDS gel, silver stain, MALDI

Nc1nc(=O)c2nc(CNc3ccc(C(=O)N[C@@H](CCC(=O)O)C(=O)O)cc3)cnc2[nH]1 [folate]
DHFR eluted from ATP-Sepharose by the compound (indicates binding): eluted
